Results as given in the supplement of paper PMC11006884.
The entries are a selection whose mix differs from that of the whole data set.

Compound: COC(=O)C#Cc1ccccc1 [methyl 3-phenylpropiolate]
Experiment: log2 ratio of iodoacetamide-alkyne labeling of the cysteine site, DMSO over compound (competition); higher = stronger covalent engagement of the cysteine by the compound, active = 1 or more
Conditions: 500 µM; treatment time 1 h; system: HEK293T cell lysate
How it was run: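 For each cysteine, the log2 competition ratio is mean control-channel reporter intensity over mean compound-channel reporter intensity. HEK293T lysate (2 mg/mL) was exposed to vehicle or electrophile (500 µM, 1 h, ambient temperature), labelled with iodoacetamide alkyne (1 h), clicked to sCIP-TMT reagents, digested overnight with trypsin at 37 °C, streptavidin-enriched and analysed by Orbitrap Eclipse LC-MS/MS with FAIMS and FragPipe. Cysteines quantified in only one of three replicates, each with duplicate channels, were excluded.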

log2 ratio of iodoacetamide-alkyne labeling, inactive:
NCAPG C751 (UniProt Q9BPX3) 0.416
RSF1 C650 (UniProt Q96T23) 0.578
MYBBP1A C338 (UniProt Q9BQG0) 0.575
UniProt Q96NC0_C87 0.134
EHMT2 C617 (UniProt Q96KQ7) 0.759
RPRD1A C151 (UniProt Q96P16) 0.458
DOCK6 C1853 (UniProt Q96HP0) 0.374
ATXN2 C852 (UniProt Q99700) 0.736
UniProt Q96PU8_C35 0.362
FBXL18 C423 (UniProt Q96ME1) 0.278
RBM17 C302 (UniProt Q96I25) 0.102
VAT1 C50 (UniProt Q99536) 0.122
TBCB C216 (UniProt Q99426) 0.245
SRPK1 C647 (UniProt Q96SB4) 0.367
UHRF1 C170 (UniProt Q96T88) 0.462
PSMB7 C86 (UniProt Q99436) 0.264
CCT7 C511 (UniProt Q99832) -0.0842
MIPEP C649 (UniProt Q99797) 0.385
MYBBP1A C1031 (UniProt Q9BQG0) 0.225
HSD17B10 C214 (UniProt Q99714) 0.734
NSD1 C1312 (UniProt Q96L73) 0.503

Reprinted from above (5 entries):
log2 ratio of iodoacetamide-alkyne labeling, inactive:
DOCK6 C1853 (UniProt Q96HP0) 0.374
ATXN2 C852 (UniProt Q99700) 0.736
UniProt Q96PU8_C35 0.362
FBXL18 C423 (UniProt Q96ME1) 0.278
RBM17 C302 (UniProt Q96I25) 0.102

Following part:

log2 ratio of iodoacetamide-alkyne labeling, active:
MMS19 C549 (UniProt Q96T76) 1.36
